# Measured values as given in the supplement of paper PMC11438910.
# Some of the results follow. Most of these values are background signal.
# Columns and labels:
# Assay in all cases: fluorescence intensity of antibody binding to polysaccharide-coupled beads; higher = stronger binding
# [1] = target: pneumococcal polysaccharide Pn8
# Experimental: (§1)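 Recombinant rhesus-murine chimeric IgG1 antibodies were tested against antigen-coupled MagPlex beads in a 96-plex Luminex direct immunoassay (dLIA). The beads carried pneumococcal capsular polysaccharides of 93 serotypes plus C-polysaccharides. Antibody was added at 0.1–12,500 ng/mL for 1 h, then PE anti-mouse IgG, and net MFI was read on a Bio-Plex 3D. Only the rhesus variable regions are printed; constant regions are murine IgG1/kappa/lambda, and the signal peptide is MGWSCIILFLVATATGVHS.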
# [2] = target: pneumococcal polysaccharide Pn9A
# Experimental: as §1
# [3] = target: pneumococcal polysaccharide Pn9L
# Experimental: as §1
# [4] = target: pneumococcal polysaccharide Pn9N
# Experimental: as §1
# [5] = target: pneumococcal polysaccharide Pn9V
# Experimental: as §1
# [6] = antibody concentration 0.1 ng/mL
# [7] = antibody concentration 0.534724 ng/mL
# [8] = antibody concentration 2.8593 ng/mL
# [9] = antibody concentration 15.2894 ng/mL
# [10] = antibody concentration 81.7561 ng/mL
# [11] = antibody concentration 437.17 ng/mL
# [12] = antibody concentration 2337.65 ng/mL
# [13] = antibody concentration 12500 ng/mL
binder,measurement,setting,value
4-99.5 (protein) chain 1: QVQLQESGPGLVKPSETLSLTCAVSGYSISSGYYWGWIRQPPGKGLEYIGYISGSSGSPYYNPSLKSRVTISKDTSKNQFSLKLSSATAADTAVYYCARRQVGIGFDYWGQGVLVTVSS chain 2: QAAPTQPPSVSGSPGQSVTISCTGTSSDIGYYNAVSWYQQHPGKAPKLMIYEVSKRPSGVSDRFSGSKSGNTASLTISGLQAEDEADYYCSSYAGSNTYIFGAGTRLTVL,fluorescence intensity,[1]; [6],22.8 MFI
same,fluorescence intensity,[1]; [7],22.5 MFI
same,fluorescence intensity,[1]; [8],22.5 MFI
same,fluorescence intensity,[1]; [9],20.5 MFI
same,fluorescence intensity,[1]; [10],21.5 MFI
same,fluorescence intensity,[1]; [11],23 MFI
same,fluorescence intensity,[1]; [12],26 MFI
same,fluorescence intensity,[1]; [13],35.5 MFI
same,fluorescence intensity,[2]; [6],19.5 MFI
same,fluorescence intensity,[2]; [7],20 MFI
same,fluorescence intensity,[2]; [8],18.8 MFI
same,fluorescence intensity,[2]; [9],17.8 MFI
same,fluorescence intensity,[2]; [10],20.5 MFI
same,fluorescence intensity,[2]; [11],20 MFI
same,fluorescence intensity,[2]; [12],21.2 MFI
same,fluorescence intensity,[2]; [13],37.5 MFI
same,fluorescence intensity,[3]; [6],19.5 MFI
same,fluorescence intensity,[3]; [7],18 MFI
same,fluorescence intensity,[3]; [8],17 MFI
same,fluorescence intensity,[3]; [9],16.5 MFI
same,fluorescence intensity,[3]; [10],17.5 MFI
same,fluorescence intensity,[3]; [11],19.5 MFI
same,fluorescence intensity,[3]; [12],20.5 MFI
same,fluorescence intensity,[3]; [13],27.8 MFI
same,fluorescence intensity,[4]; [6],16 MFI
same,fluorescence intensity,[4]; [7],16.5 MFI
same,fluorescence intensity,[4]; [8],16.2 MFI
same,fluorescence intensity,[4]; [9],15 MFI
same,fluorescence intensity,[4]; [10],17 MFI
same,fluorescence intensity,[4]; [11],15.5 MFI
same,fluorescence intensity,[4]; [12],18.5 MFI
same,fluorescence intensity,[4]; [13],29.5 MFI
same,fluorescence intensity,[5]; [6],14.8 MFI
same,fluorescence intensity,[5]; [7],15.5 MFI
same,fluorescence intensity,[5]; [8],15 MFI
same,fluorescence intensity,[5]; [9],16 MFI
same,fluorescence intensity,[5]; [10],15 MFI
same,fluorescence intensity,[5]; [11],16.5 MFI
same,fluorescence intensity,[5]; [12],15.5 MFI
same,fluorescence intensity,[5]; [13],20 MFI

# Retrieved one by one from the entries so far, 3 records:
binder,measurement,setting,value
4-99.5 (protein) chain 1: QVQLQESGPGLVKPSETLSLTCAVSGYSISSGYYWGWIRQPPGKGLEYIGYISGSSGSPYYNPSLKSRVTISKDTSKNQFSLKLSSATAADTAVYYCARRQVGIGFDYWGQGVLVTVSS chain 2: QAAPTQPPSVSGSPGQSVTISCTGTSSDIGYYNAVSWYQQHPGKAPKLMIYEVSKRPSGVSDRFSGSKSGNTASLTISGLQAEDEADYYCSSYAGSNTYIFGAGTRLTVL,fluorescence intensity,[5]; [13],20 MFI
same,fluorescence intensity,[2]; [7],20 MFI
same,fluorescence intensity,[1]; [10],21.5 MFI
